Assay: Foam forming test in water (FIG. 7)
Conditions: 20 mg in 10 ml water, shaken 1 minute

Cn1cc[n+](CCCS(=O)(=O)[O-])c1SCCC(F)(F)C(F)(F)C(F)(F)C(F)(F)C(F)(F)C(F)(F)F [Synthesis Example 6, 3-(1-methyl-2-((1H,1H,2H,2H-perfluorooctyl)thio)imidazolium-3-yl) propane-1-sulfonate]
foam-generating effect: active as a foam forming agent
foam-generating effect (listed as 3-(1-methyl-2-((1H,1H,2H,2H-perfluorooctyl)thio)imidazolium-3-yl) propane-1-sulf): clear foaming

Source: patent US10792633B2, “Composition comprising a fluorine-containing surfactant” (HWK-Kronbichler GmbH, priority 2016, dated 2020)
